Out of some 390,000 compounds screened, about 610 (0.16%) were called active. Inconclusive results, whose numbers are uncertain, are shown with a selection of clear calls. Calls follow the shape of the dose curve; as a rule, active = well fitted inhibition curve with a large enough effect; inconclusive = small, poorly fitted or top-dose-only effect, or effect the other way, or another doubt; inactive = no such curve, though single readings can be large or run the other way. Potencies of inconclusive entries are doubtful fits and often do not repeat.
Assay: Nrf2 qHTS screen for inhibitors: counterscreen for cytotoxicity
Conditions: A549 ARE-Fluc cells, CellTiter-Fluor viability, 18-24 h; activity change, negative = cytotoxicity: at 46 µM (top of the series)
Method in brief: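 A549 ARE-Fluc cells in 5% FBS OPTI-MEM, 5000 cells/well, rested 2 h then exposed to compounds in concentration-response for 18-24 h at 37 °C. Viability by CellTiter-Fluor fluorescence (Ex 405/Em 525) after 30 min; luciferase luminescence (BugLite, 15 min, RT) read afterwards.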
% is scaled to controls: 0 for no effect and ±100 for the full control effect; potency is read from the fitted curve at half-maximal effect.

SMILES | Potency | activity change, negative = cytotoxicity
CC(C)CN(C(=O)CCNC(=O)c1ccc(Cl)cc1)C1CCS(=O)(=O)C1 (stereo not given) | inactive | –
Cc1ccc(-n2ncc(C(=O)NCCCN3CCc4ccccc4C3)c2C2CCN(C(=O)OC(C)(C)C)CC2)cc1C | inactive | –
COc1ccc2c(c1)c1c(c(=O)n(Cc3ccccc3)c(=O)n1Cc1ccc(C)cc1)n2C | inactive | –
Cc1ccc(C)c(NC(=S)N(Cc2ccco2)C(C)c2cccs2)c1 (stereo not given) | inactive | –
CCOc1ccc(NC(=O)CC2C(=O)N(c3cccc(C)c3)C(=O)N2Cc2ccco2)cc1 (stereo not given) | inactive | –
O=C(Nc1cccc(C(F)(F)F)c1)N(Cc1ccc(Cl)cc1)CC(O)C(F)(F)F (stereo not given) | inconclusive: 32.6 µM [falling, partial curve, poor fit] | –
CC(NC1=CC(=O)c2cccnc2C1=O)C(O)c1ccccc1 (stereo not given) | inconclusive: 20.6 µM [falling, single point] | –
CN(C)NC(=S)NC1CCS(=O)(=O)C1 (stereo not given) | inactive | –
COc1ccc(OC)c(N/C=C2/CCCCC2=O)c1 | inconclusive: 16.4 µM [falling, partial curve, poor fit] | –
O=C(COc1ccc(S(=O)(=O)N2CCOCC2)cc1)Nc1ccc(Cl)c(C(F)(F)F)c1 | inconclusive: 32.6 µM [falling, single point] | –
CC(=O)N1c2ccccc2C(=O)C1N1CCN(c2cc(Cl)ccc2C)CC1 (stereo not given) | inactive | –
CNc1oc(-c2ccc(Cl)cc2)nc1P(=O)(c1ccccc1)c1ccccc1 | inconclusive: 29.1 µM [falling, single point] | –
Cc1nc2c(-c3ccccc3)c(C)[nH]n2c(=O)c1Cc1ccc(C(C)C)cc1 | inconclusive: 7.31 µM [falling, partial curve, poor fit] | –
Cc1nn(-c2ccccc2)c2sc(C(=O)O)cc12 | inactive | –
O=C(c1ccc(F)cc1)N1CCN(c2cc(N3CCCCC3)c(F)cc2[N+](=O)[O-])CC1 | inconclusive: 29.1 µM [falling, single point] | –
CCOC(=O)c1c(C)[nH]c(C=O)c1Cc1cccc(Cl)c1 | inconclusive: 29.1 µM [falling, single point] | –
C=CCn1c(=N)c(C(=O)NCCCOC)cc2c(=O)n3cc(C)ccc3nc21 | inconclusive: 6.51 µM [activator, partial curve] | –
CCc1ccccc1NC(=O)Nc1cc(C(=O)NCc2cccc(F)c2)ccc1N1CCCC1 | inactive | –
CCOc1ccc(CNc2ccc3c(c2)ncn3C(C)(C)C)cc1 | inactive | –
COc1cc2c(cc1NC(=O)CSc1ccccn1)oc1ccccc12 | inconclusive: 29.1 µM [falling, single point] | –
CC(C)(C)C1CCc2onc(C(=O)Nc3cnn(Cc4ccc(F)cc4)c3)c2C1 (stereo not given) | inconclusive: 16.4 µM [falling, partial curve] | –
NS(=O)(=O)c1ccc(N=Nc2c[nH]c(=O)c(O)c2)cc1 | active: 23.1 µM | –

Entries listed so far with an aryl methoxy group, in the order listed:
SMILES | Potency | activity change, negative = cytotoxicity
COc1ccc2c(c1)c1c(c(=O)n(Cc3ccccc3)c(=O)n1Cc1ccc(C)cc1)n2C | inactive | –
COc1ccc(OC)c(N/C=C2/CCCCC2=O)c1 | inconclusive: 16.4 µM [falling, partial curve, poor fit] | –
COc1cc2c(cc1NC(=O)CSc1ccccn1)oc1ccccc12 | inconclusive: 29.1 µM [falling, single point] | –

By substructure: the entries above with a thiophene ring, fused or not (2)
SMILES | Potency | activity change, negative = cytotoxicity
Cc1ccc(C)c(NC(=S)N(Cc2ccco2)C(C)c2cccs2)c1 (stereo not given) | inactive | –
Cc1nn(-c2ccccc2)c2sc(C(=O)O)cc12 | inactive | –

Additional records follow.

SMILES | Potency | activity change, negative = cytotoxicity
O=C(O)CCCCCN1C(=O)C(O)=C(C(=O)/C=C/c2ccccc2)C1c1ccc2c(c1)OCO2 (stereo not given) | inconclusive: 29.1 µM [falling, single point] | –
Oc1ccc2ccc3cccc[n+]3c2c1 | inconclusive: 18.4 µM [activator, partial curve, poor fit] | –
COc1cc(NC(=O)c2cccs2)c(C(=O)OCC(=O)c2cc(C)n(-c3ccccc3)c2C)cc1OC | inconclusive: 23.1 µM [activator, partial curve, poor fit] | –
Cc1cc2cc3c(=O)[nH]c(=O)nc-3n(CC(O)C(O)C(O)CO)c2cc1C (stereo not given) | inconclusive: 23.1 µM [activator, partial curve] | –
COc1ccc(N(CC(C)C)S(=O)(=O)c2nnc(NC(=O)c3cccs3)s2)cc1 | inactive | –
CCC1(C)Cc2c(sc3nnn(CC(=O)Nc4ccc(Cl)cc4)c(=O)c23)CO1 (stereo not given) | inconclusive: 32.6 µM [falling, partial curve, poor fit] | –
CN(C)C(CNC(=O)CCc1c[nH]c2ccccc12)c1ccccc1 (stereo not given) | inconclusive: 32.6 µM [falling, partial curve, poor fit] | –
Cc1ccccc1NS(=O)(=O)c1cc(C(=O)NCCSC2CCCCC2)ccc1C | inactive | –
CCc1ccc(NC(=S)NC2CC3CCCC(C2)N3Cc2cccs2)cc1 (stereo not given) | inconclusive: 29.1 µM [falling, single point] | –
CN1CCN(S(=O)(=O)c2csc(C(N)=O)c2)CC1 | inactive | –
Cc1ccc(NC(=O)C(C)OC(=O)c2ccc(NS(=O)(=O)c3ccc(F)c(F)c3)cc2)cc1 (stereo not given) | inactive | –
CSc1ccccc1NC(=O)c1cc2c(=O)n3ccccc3nc2s1 | inactive | –
Cc1ccc(CN(Cc2cc3cc4c(cc3[nH]c2=O)OCCO4)Cc2nnnn2Cc2ccco2)cc1 | inconclusive: 10.3 µM [falling, partial curve, poor fit] | –
Nc1cccc2c1C(=O)N(C(=O)c1cccc(S(=O)(=O)N3CCCC3)c1)C2=O | inconclusive: 18.4 µM [activator, single point] | –
CC1=C(C(=O)Nc2ccccc2)C(c2ccc(C)cc2)N=C(Nc2nc3ccccc3o2)N1 (stereo not given) | – | inactive: -14.3% [at 1.84 µM]
C(=C\CSc1ncn[nH]1)/CSc1ncn[nH]1 | inconclusive: 6.51 µM [activator, partial curve, poor fit] | –
CCOC(=O)c1ccc(NC(=O)c2cccc(S(=O)(=O)N3CCOCC3)c2)cc1 | inconclusive: 25.9 µM [falling, partial curve, poor fit] | –
CCOc1ccccc1NC(=O)CSc1nc2c(sc3ccccc32)c(=O)n1CCCC(=O)NC1CCCC1 | inactive | –
CCOC(=O)C1=C(c2ccccc2)N=c2s/c(=C\c3ccc(O)cc3)c(=O)n2C1c1cccs1 (stereo not given) | inconclusive: 25.9 µM [falling, single point] | –
CC(C)(CSc1ccccn1)NS(=O)(=O)c1ccc(Cl)cc1 | inconclusive: 11.6 µM [activator, partial curve, poor fit] | –
CCOC(=O)c1c(N)n(CCOC(=O)c2cccs2)c2nc3ccccc3nc12 | inconclusive: 4.61 µM [activator, single point] | –
CN1C(CC(=O)Nc2ccc(Br)cc2)c2ccccc2CC1(C)C (stereo not given) | inconclusive: 29.1 µM [falling, partial curve, poor fit] | –

SMILES | Potency | activity change, negative = cytotoxicity
O=C(/C=C/c1ccco1)c1cccnc1 | inconclusive: 20.6 µM [falling, single point] | –
Cn1nc(-c2ccccc2)c2nc3ccccc3nc21 | inconclusive: 23.1 µM [activator, single point] | –
COc1ccc(C(=O)N2CCC(c3nc4ccccc4s3)CC2)cc1Cl | inactive | –
COc1ccccc1/C=C/c1nc(C#N)c(N2CCN(C)CC2)o1 | inconclusive: 1.64 µM [activator, partial curve, poor fit] | –
Cc1ccccc1-n1nc(C)c2c1N=C1C(Cl)=CC(Cl)=CN1C2c1ccc(C(=O)O)cc1 (stereo not given) | inconclusive: 23.1 µM [falling, partial curve, poor fit] | –
Cc1ccc(C2=NCCn3c2c2ccc(C(F)(F)F)cc2[n+]3[O-])cc1 | inactive | –
CCc1nnc(NC(=O)CCC(=O)N2CCN(c3cc(C)ccc3C)CC2)s1 | inconclusive: 29.1 µM [falling, partial curve, poor fit] | –
Cc1ccc(S(=O)(=O)Nc2ccc(Cl)cc2)cc1NC(=O)c1cc2c(s1)CCCC2 | inconclusive: 29.1 µM [falling, single point] | –
CCOC(=O)c1cccc(NC(=O)CC2C(=O)N(c3ccc(Cl)cc3)C(=O)N2C2CCCC2)c1 (stereo not given) | inconclusive: 23.1 µM [falling, partial curve, poor fit] | –
CN(CC(=O)Nc1cccc(F)c1)C(=O)CCSc1ccc(F)cc1 | inconclusive: 6.51 µM [activator, partial curve, poor fit] | –
COc1ccc(S(=O)(=O)NCc2ccccn2)cc1NC(=O)c1ccccc1C | inconclusive: 6.51 µM [falling, full curve] | –
COc1cccc2cc(C(=O)NCc3ccco3)c(=Nc3ccc(C(=O)O)cc3)oc12 | inconclusive: 16.4 µM [falling, single point] | –
c1ccc(-c2nnc(SCCC3OCCCO3)o2)cc1 | inconclusive: 29.1 µM [activator, partial curve, poor fit] | –
Cc1ccc(NC(=O)C(=Cc2ccc(C(=O)O)cc2)C(=O)Nc2ccc(C)cc2C)c(C)c1 | inconclusive: 29.1 µM [falling, single point] | –
Cc1ccc(S(=O)(=O)N2CCCc3cc(NS(=O)(=O)c4cccc(Cl)c4)ccc32)cc1 | inconclusive: 20.6 µM [falling, partial curve, poor fit] | –
COc1ccccc1NC(=O)CSc1nnc(NC(=O)Nc2ccc(C)cc2)s1 | inconclusive: 29.1 µM [falling, single point] | –
CCCNC(=O)c1ccc2c(=O)n3c(-c4ccc(C)cc4)csc3nc2c1 | inactive | –
CCCCN1C(=O)c2[nH]nc(-c3ccccc3O)c2C1c1ccc(OCc2ccccc2)cc1 (stereo not given) | inconclusive: 18.4 µM [falling, single point] | –
CCOC(=O)N1CCN(c2cc(NCCC(=O)O)c3c4c(onc24)-c2ccccc2C3=O)CC1 | inconclusive: 11.6 µM [falling, partial curve] | –
N#Cc1nc(COc2ccc(Br)cc2)oc1N1CCCC1 | inconclusive: 16.4 µM [activator, partial curve, poor fit] | –
COc1cccc(-n2c(Cc3cc(=O)[nH]c(=O)[nH]3)nnc2SCC(=O)N2CCCCC2)c1 | inactive | –

Reference: PubChem BioAssay AID504648 (National Center for Advancing Translational Sciences (NCATS), 2011)
